Test system: NCI-60 cancer cell line panel
Assay: NCI-60 cancer cell line panel screen (percent growth inhibition)
Type: cell-based, human
Conditions: NCI-60 cell lines; 10 μM, 48 hours
From the text: FIG. 4 illustrates analysis of cell-killing activity of select compounds of the disclosure in NCI-60 cancer cell line panel. 8, 20, 27 and 23 (left panel) and taxol, thalipcarpine, and maytansine activity (right panel) in the NCI-60 cell lines.
This screening platform measures the antitumor activities of compounds expressed as percent growth inhibition, which differentiates the compound's activity at inhibiting cell proliferation and reducing cell number (i.e. killing cells). […] Two GBM cells lines included in the NCI-60 panel, SF-295 and SF-539, were among the top ten cell lines that were the most sensitive to 8, 20 and 27 treatments (FIG. 6). Their respective EC50 values of the compounds measured in these cells mirrored their EC50 values measured in T98G cells. Additional cell lines among the top ten cell lines that were sensitive to these three compounds were three cell lines of colon cancer origin: Colo205, HT-29 and HCC-2998 (FIG. 5).

SMILES: CCn1c2ccccc2c2cc(C(=O)c3cccc4c3CCCN4)ccc21 [Compound 23, (9-ethyl-9H-carbazol-3-yl)(1,2,3,4-tetrahydroquinolin-5-yl)methanone]
- growth inhibition: delta: 10.42
- growth inhibition: range: 28.77

Source: patent US11420967B2 (priority 2018, dated 2022)
